US20250018019A1, “TREATMENT OF INTERFERON DRIVEN INFLAMMATION” (The Provost, Fellows, Foundation Scholars and the other …, priority 2023, published 2025)
Structures can show the parent of a compound that is named as a salt. At least one structure is not confirmed: it was looked up by name or label, or the drawing left a doubt.

Assays:
BMDMs [1] = assay: Flow cytometry, CellROX and TMRM staining; type: cell-based, mouse; conditions: BMDMs pre-treated, LPS 4 h; oligomycin 10 μM, CCCP 50 μM, valinomycin 10 nM, MMF 50 or 100 μM
Procedure: (§1) All compounds used DMSO as a vehicle except for 4-hydroxy tamoxifen (EtOH), NAC (PBS), and AOAA for tracing experiments (Media). LPS was used at a concentration of 100 ng/ml for indicated timepoints (2, 3, 4, 6, 8, 24, 48 h). FHIN1 (10 or 20 μM), MMF (50 or 100 μM), DMF (25 μM), AOAA (5 mM), oligomycin (10 μM), CCCP (50 μM) NAC (1 mM), and IMT1 (10 μM) pre-treatments were performed for 3 h prior the addition of LPS. Cells were treated with valinomycin (10 nM) 15 mins before LPS stimulation. Anti-CD210 or IgG control (10 μg/ml) antibodies were added to cells 1 h prior to LPS stimulation. Recombinant mouse IL-10 protein (100 ng/ml) was added to cells at the same time as LPS. Cells were treated with IFN-B1 (220 ng/ml) for 3 h. Cells were treated with C-178 (1 μM) 1 h prior to LPS stimulation or transfection with 2′3′-cGAMP (1.5 μg/ml) for 4 hrs to achieve cGAS-STING activation. Cells were treated with ODN 2088 (1 μM) for 1 hr prior to LPS stimulation or transfection with CPG ODN 1826 (1.5 μg/ml) to achieve TLR9 activation. 3 different timepoints of 4-hydroxy tamoxifen (TAM) (600 nM or 2 μM) or EtOH treatment were performed-these are specified in the individual figure legends. […]
Cells were plated in 12-well plates and treated as desired. […] Mean fluorescence intensity (MFI) was calculated for all cells in each condition using FlowJo v10.

BMDMs [2] = assay: RT-qPCR gene expression in BMDMs; type: cell-based, mouse; conditions: LPS 4 h
Procedure: as §1, with “legends. For ‘48 h’ treatments EtOH/TAM was added on day 5 of 6 during the BMDM differentiation protocol. On day 6 they were plated with EtOH/TAM (left overnight) and treated the following day.” for “legends.”
RNA extraction from cells was carried out using a Purelink™ RNA kit (Invitrogen) according to the manufacturer's instructions. […] Isolated RNA was quantified using a NanoDrop 2000 spectrophotometer, and RNA concentration was normalised to the lowest concentration across all samples with RNAse-free water. If necessary, samples were DNAse-treated after quantification using DNAse I (Thermo Fisher) according to the manufacturer's instructions. […] Real-time quantitative PCR was performed on the cDNA generated in the previous step, using primers designed in-house and ordered from Eurofins Genomics, as detailed in Table S2. […] Relative expression (2^−ΔΔCT) was calculated from the CT values for each sample and gene of interest. […]

COC(=O)/C=C/C(=O)O [MMF, monomethyl fumarate]
mitochondrial membrane potential (MMP), TMRM staining (BMDMs [1]): did not affect
Il10 expression (BMDMs [2]; BMDMs pre-treated 3 h): exhibited the same effects
Tnfa expression (BMDMs [2]; BMDMs pre-treated 3 h): exhibited the same effects
LPS-induced IFN-β expression (Ifnb1) (BMDMs [2]; BMDMs pre-treated): does not increase
